The results in this text go back to PubChem BioAssay AID2685 (National Center for Advancing Translational Sciences (NCATS), 2010).

Molecules are shown by their SMILES. The list shows a part of the results. Further columns of the screen follow, without active or inactive calls. Most of these compounds were active or inconclusive in the main read-out, so they are no random draw. Potencies come from curve fits of mixed quality, noted in brackets.

The experiment is described as follows: qHTS Assay for Lipid Storage Modulators in Drosophila S3 Cells.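 On cell number change: cells counted by Cell Tracker Red CMTPX staining in the red channel.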 The following applies: BODIPY lipid droplet fluorescence, 18-24 h; for cell number change: measured here: cell count max response, cells fed with added oleic acid. In a few lines: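 Drosophila S3 cells got compounds at several concentrations plus oleic acid (400 uM solution). Laser-scanning cytometry with 488 nm excitation read lipid droplets at 500-530 nm and cells at 575-640 nm. Percent activity was relative to 20 uM Triacsin C.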
In general terms: qHTS replaces the single test concentration by a dilution series.

The mark [1] stands for this setting: measured here: cell number channel AC50, cells fed with added oleic acid.
[2] abbreviates: measured here: lipid fluorescence (Fed channel) AC50, cells fed with added oleic acid.

On to `O=C(CSc1nc(-c2cccs2)cc(C(F)(F)F)n1)NCc1ccco1`, for which the cell number change is -31%. The AC50 under setting [1] was 5.17 µM [falling, full curve, poor fit]. The AC50 under setting [2] is 9.2 µM [falling, partial curve].
Take `CCCNC(=O)C(Cc1ccc(Cl)cc1)NC(=O)c1ccc(C#N)cc1` (stereo not given): the cell number change was 16.3%. Moreover, the AC50 under setting [1] is 0.00411 µM [falling, full curve, poor fit].
As for `CC1=C(C(=O)OC(C)C)C(c2cccs2)n2ncnc2N1` (stereo not given), the AC50 under setting [2] is 0.0184 µM [rising, full curve, poor fit].
For `CC(=O)c1cccc(N=C2NC(=O)CS2)c1`, the AC50 under setting [2] was 6.51 µM [falling, single point].
For `CC(=O)N1CCN(C(=O)c2cccc(S(=O)(=O)N3CCOCC3)c2)CC1`, the cell number change was -6.23%. Besides, the AC50 under setting [2] was 32.6 µM [rising, single point].
For `Cc1nnc(SCC(=O)NC2CCCC2)n1-c1ccccc1`, the cell number change is -8.1%. For the same compound, the AC50 under setting [1] was 2.59 µM [falling, partial curve]. The AC50 under setting [2] was 0.651 µM [falling, partial curve, poor fit].
With `CCCOc1ccc(-c2nc(N3CCN(CC)CC3)c3ccccc3n2)cc1`, the cell number change was 18.1%.
On the same count and under the same terms, as for `COc1ccc(CNC(=O)c2cccc(S(=O)(=O)N3CCN(c4ccc(F)cc4)CC3)c2)cc1`, the figure is 24.1%; as for `Cc1[nH]c2ccccc2c1C(=O)COC(=O)c1ccc([N+](=O)[O-])s1`, -12.4%.
Regarding `COc1ccc(N(CC(=O)NCc2ccccc2)S(=O)(=O)c2c(C)n[nH]c2C)cc1`, the cell number change came to 24%. The AC50 under setting [1] was 0.00411 µM [rising, full curve, poor fit].
As to `COc1cc(/C=N/NC(=O)CCN2CCN(c3ccccc3)CC2)cc(OC)c1OC`, the cell number change was -0.418%. Moreover, the AC50 under setting [2] was 4.11 µM [falling, partial curve].
Turning to `CC1CCN(CCCCOc2ccc(C(=O)c3ccccc3)cc2)CC1`, the cell number change is -0.3%. Moreover, the AC50 under setting [2] was 0.082 µM [rising, full curve, poor fit].
For `O=C(C1CCC(CNc2nc(=S)[nH]c3ccccc23)CC1)N1CCN(c2ccc(F)cc2)CC1` (stereo not given), the cell number change is 35.9%. Under setting [2], the AC50 was 0.103 µM [rising, full curve, poor fit].
With `CN(C)/C=C/C(=O)c1ccncc1`, the cell number change is -24.7%. Also, the AC50 under setting [1] is 3.26 µM [falling, full curve, poor fit]. Besides, the AC50 under setting [2] was 2.91 µM [falling, full curve].
For the compound `Cc1cc(OCC(=O)N2CCCC2)ccc1Cl`, the cell number change is -11.9%.
Consider `COc1ccc(-n2c(N)cc(=O)nc2SCC(=O)N2CCN(c3ccccc3)CC2)cc1`, for which the cell number change is -0.495%. In addition, the AC50 under setting [2] was 6.51 µM [falling, partial curve, poor fit].
In the case of `Cc1cc(Br)ccc1NC(=O)CN(C)C(=O)c1ccc2ccccc2n1`, the cell number change is -5.89%. The concentration at half-maximal activity (AC50) under setting [2] was 11.6 µM [rising, partial curve].
`COc1cccc2c1Oc1ncccc1N(C(=O)CCC(=O)NCc1ccccc1F)C2`: the cell number change was -7.79%. Moreover, under setting [2], the AC50 was 29.1 µM [rising, single point].
`c1ccc(Nc2c(-c3ccco3)nc3ccccn23)cc1`: the cell number change is -30%. For the same compound, the concentration at half-maximal activity (AC50) under setting [1] is 4.61 µM [rising, single point].
`CC(CC(=O)N1CCc2ccccc21)n1cccn1` (stereo not given): the AC50 under setting [2] was 6.51 µM [falling, single point].
Take `O=C(CC1SC(=Nc2ccccc2F)N(CCN2CCOCC2)C1=O)Nc1ccc(F)cc1F` (stereo not given): the cell number change stood at 7.62%.
Consider `Cc1cccc(C)c1NC(=O)C1(NC(=O)c2cnccn2)CCCCC1`, for which the AC50 under setting [1] is 0.0731 µM [falling, partial curve, poor fit].
As for `C=CCn1c(SCC(=O)c2cc(C)n(C)c2C)nnc1-c1ccncc1`, the AC50 is 2.31 µM [rising, single point] under setting [1] and 1.3 µM [rising, partial curve, poor fit] under setting [2].
On to `Cc1ccccc1C(=O)N1CCN(c2ccc(NC(=O)Cc3ccccc3)cc2)CC1`, for which the cell number change was found to be 15.6%. Further, the AC50 under setting [2] was 3.66 µM [rising, full curve].
For the compound `O=C1NCCCC1C(=O)N1CCCCC1` (stereo not given), the cell number change was determined as 9.45%.
For the compound `NC(=O)CCN(C(=O)c1cccc(S(=O)(=O)N2CCc3ccccc32)c1)c1ccccc1`, the cell number change was -7.15%. Under setting [2], the AC50 is 6.51 µM [falling, partial curve].
Turning to `CN(C(=O)c1ccc(NC(=O)Cc2cccc(NC(=O)C3CCN(C(=O)CCc4ccccc4)CC3)c2)cc1)C1CCCC1`, the cell number change is -8.06%. Further, the AC50 under setting [2] was 9.2 µM [falling, partial curve].
On to `COc1ccc2[nH]c3nc(SCc4nnc(-c5ccccc5)o4)nnc3c2c1`, for which the cell number change was -68.2%. Further, the AC50 under setting [1] was 18.4 µM [falling, single point]. Further, the AC50 under setting [2] is 29.1 µM [falling, single point].
As for `Nc1cccc(C(=O)NCCNC(=O)c2cccc(N)c2)c1`, the cell number change is -2.78%. Besides, the AC50 under setting [2] was 29.1 µM [falling, partial curve, poor fit].
`O=C(O)c1ccc(C(=O)Nc2cccc3ccccc23)c(C(=O)O)c1`: the cell number change is -34.9%. The half-maximal activity concentration (AC50) under setting [1] is 20.6 µM [falling, partial curve, poor fit].
For `CCC1(CC)Cc2ccccc2C2=C(C(=O)N3CCCCC3)C(=O)C(=O)N21`, the cell number change is 14.6%. Besides, under setting [2], the half-maximal activity concentration (AC50) is 6.51 µM [falling, single point].
In the case of `COC(=O)c1ccc(NC(=O)c2cccc(NC(=O)c3ccco3)c2)cc1`, the cell number change amounted to 5.56%. The AC50 under setting [2] is 18.4 µM [falling, single point].
Turning to `CN(CCOc1ccccc1Cl)Cc1ccccc1`, the AC50 under setting [2] is 20.6 µM [falling, partial curve].
Consider `O=C(CCCc1c[nH]c2ccccc12)Nc1ncccc1O`, for which the cell number change worked out at 19.8%. Under setting [2], the concentration at half-maximal activity (AC50) was 29.1 µM [rising, single point].
Consider `CC(C)(C)C1CCC(C(=O)OCC(=O)c2ccc[nH]2)CC1` (stereo not given), for which the cell number change was -52.4%. Also, the AC50 under setting [1] was 20.6 µM [falling, partial curve].
Consider `CCN(CC)c1ccc(S(=O)(=O)N2CCOCC2)cc1NC(=O)CSc1ccccc1`, for which the cell number change was -50%. The AC50 under setting [1] is 29.1 µM [falling, single point].
As for `COc1ccc(/C=C(/C#N)C(=O)Nc2cccc([N+](=O)[O-])c2)cc1C(=O)O`, the cell number change came out at 11.1%. In addition, the AC50 under setting [2] is 29.1 µM [rising, single point].
In the case of `CC(C)(Oc1cccc2ccccc12)C(=O)O`, the cell number change came out at 4.33%. Besides, the AC50 under setting [2] was 0.082 µM [falling, full curve, poor fit].
In the case of `Cc1csc2c(N3CCN(C(=S)Nc4ccc(C(F)(F)F)cc4)CC3)ncnc12`, the cell number change worked out at 21.6%.

One may read the AC50 as the concentration giving half of the maximal activity seen. Low readings indicate greater potency, high ones weaker potency.
